# Reference: patent publication US20210325404A1 (ADURO BIOTECH HOLDINGS EUROPE B V, published 2021)
# No constants are given. Whether binding was seen depends on the method and setting. Some entries that bind do so weakly or less than the wild type.
# T1: human APRIL in serum of CLL patients (human, UniProt O75888 105-250)
# T1 construct: Endogenous soluble APRIL in patient sera (CLL1, CLL3, CLL6, CLL11-20); also called hAPRIL; A Proliferation-Inducing Ligand
# T1 sequence (looked up): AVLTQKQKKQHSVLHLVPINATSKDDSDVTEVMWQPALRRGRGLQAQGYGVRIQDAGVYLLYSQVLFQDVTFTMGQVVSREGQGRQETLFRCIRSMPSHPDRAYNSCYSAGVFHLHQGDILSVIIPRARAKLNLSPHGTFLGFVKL
# Legend:
# [1] = target: secreted form of FLAG-hAPRIL (pCR3-hAPRIL) (human) (UniProt O75888); test: ELISA: hybridoma supernatant on FLAG-hAPRIL captured by coated BCMA-Fc
# [2] = target: T1, human APRIL in serum of CLL patients; test: ELISA: serum APRIL captured by BCMA-Fc, antibody at 1 µg/ml, goat anti-mouse IgG detection
# Method: To quantify the APRIL serum levels in serum derived from CLL patients using the newly identified APRIL monoclonal antibodies, hAPRIL.130, hAPRIL.132, hAPRIL.133, hAPRIL.135 and hAPRIL.138 the following ELISA assay was performed. ELISA plates were coated with 100 μl of 0.5 μg/ml BCMA-Fc (EBC0512081; R&D), in coating buffer (0.2 M Sodium Phosphate, pH=6.5) and incubated overnight at 4° C. Next, plates were washed three times with PBS/0.2% Tween and blocked with 150 μl PBS/1% BSA for one hour at 37° C. After washing 3 times with PBS/0.2% Tween 100 μl of samples or standard curves was added. The CLL serum samples were five times diluted in PBS/10% FCS, while standard curve was diluted in PBS+FCS 10%+HS 20%. Samples and standard curve concentrations were incubated for 2 hr at room temperature. Next, plates were washed three times with PBS/0.2% Tween. Next, 100 μl of the anti-APRIL monoclonal antibody was added to the plates at a concentration of 1 μg/ml diluted in PBS/1% BSA and incubated for one hour at 37° C. Subsequently, plates were washed three times with PBS/0.2% Tween and 100 μl of Goat anti-Mouse IgG (H&L) (Southern Biotech, cat number 1031-05), diluted 1:1,000 in PBS/1% BSA was added and incubated for one hour at 37° C. […] Bound APRIL was quantified by measurement of optical density at 450 nm.
# [3] = target: T1, human APRIL in serum of CLL patients; test: ELISA: serum APRIL of CLL1, CLL3 and CLL6 captured by BCMA-Fc (500 or 100 ng/well)
# Method: To quantify the APRIL serum levels in serum derived from CLL patients using the newly identified APRIL monoclonal antibodies, hAPRIL.130, hAPRIL.132, hAPRIL.133, hAPRIL.135 and hAPRIL.138 the following ELISA assay was performed. […] Next, plates were washed three times with PBS/0.2% Tween and blocked with 150 μl PBS/1% BSA for one hour at 37° C. After washing 3 times with PBS/0.2% Tween 100 μl of samples or standard curves was added. The CLL serum samples were five times diluted in PBS/10% FCS, while standard curve was diluted in PBS+FCS 10%+HS 20%. Samples and standard curve concentrations were incubated for 2 hr at room temperature. Next, plates were washed three times with PBS/0.2% Tween. Next, 100 μl of the anti-APRIL monoclonal antibody was added to the plates at a concentration of 1 μg/ml diluted in PBS/1% BSA and incubated for one hour at 37° C. Subsequently, plates were washed three times with PBS/0.2% Tween and 100 μl of Goat anti-Mouse IgG (H&L) (Southern Biotech, cat number 1031-05), diluted 1:1,000 in PBS/1% BSA was added and incubated for one hour at 37° C. Plates were washed three times with PBS/0.2% Tween and bound immune complexes visualized by addition of 100 μl of TMB substrate (TMB). The reaction was stopped by adding an equal amount of 1 M hydrochloric acid to the reaction volume. Bound APRIL was quantified by measurement of optical density at 450 nm.
# [4] = target: recombinant APRIL (APRIL wt expressed in 293T cells) (UniProt O75888); test: ELISA: recombinant APRIL (100-0.04 ng/ml, with or without human serum) captured by BCMA-Fc, hAPRIL.133 at 1 µg/ml
# [5] = target: recombinant APRIL (APRIL wt expressed in 293T cells) (UniProt O75888); test: ELISA: recombinant APRIL standard curves captured by BCMA-Fc, detected by hAPRIL.133
binding [1],binding [2],binding [3],binding [4],binding [5],Binder
binds,,,,,"hAPRIL.135 (antibody, IgG1, V domains shown, constant regions are not; also called anti-hAPRIL antibody hAPRIL.135) VH: QVQLKESGPGLVAPSQSLSITCTVSGFSLSRYSVHWVRQPPGKGLEWLGMIWGGGSTDYNSALKSRLSISKDNSKRQVFLKMNSLQTDDTAIYYCARSNWEIYALDYWGQGTSVTVSS VL: DIVLTQSPASLAVSLGQRATISCKASQSIDYDGDNYMNWYQQKPGQPPKLLIYVASSLESGIPARFSGSGSGTDFTLNIHPVEEEDAATYYCQQSNVEPYTFGGGTKLEIK"
binds,,,,,"hAPRIL.138 (antibody, IgG1, V domains shown, constant regions are not; also called anti-hAPRIL antibody hAPRIL.138) VH: QVQLKESGPGLVAPSQSLSITCTVSGFSLSRYSIHWVRQPPRKGLEWLGMIWGGGSTDYNSALKSRLSINKDNSKRQVFLKMHSLQTDDTAIYYCARSNWEIYAMDYWGQGTSVTVSS VL: DIVLTQSPPSLAVSLGQRATISCKASQSIDYDGDRYMNWYQQKPGQPPKLLIYVASNLESGIPARFSGSGSGTDFTLNIHPVEEEDAATYYCQQSHEEPHTFGGGTKLEIK"
binds,binds,binds,,,"hAPRIL.130 (antibody, IgG1, V domains shown) VH: QVQLKESGPGLVAPSQSLSITCTVSGFSLTGYGVNWVRQPPGKGLEWLGVIWGDGSTEYNSALKSRLSISKDKSKSQVFLKMNSLQTDDTARYYCARDDDVMDYWGQGTSVTVSS VL: SIVMTQTPKFLLVSAGDRVTITCKAGQSVTNDVAWYQQKPGQSPKLLIYYASNRFTGVPDRFTGSGYGTDFTFAISTVQAEDLAVYFCQQDYSSPWTFGGGTKLEIK"
binds,,,binds,binds,"hAPRIL.133 (antibody, IgG1, V domains shown, constant regions are not; also called hAPRIL.133 mAb; anti-hAPRIL.133 monoclonal antibody) VH: QVQLKESGPGLVAPSQSLSITCTVSGFSLTGYGVNWVRQPPGKGLEWLGVIWGDGSTEYNSALKSRLSISKDKSKSQVFLKMNSLQTDDTARYYCARDDDVMDYWGQGTSVTVSS VL: SIVMTQTPKFLLVSAGDSITITCKADQSVSSDVAWYQQKAGQSPKLLIYYASNRYTGVPDRFTGSGYGTDFTFAISSVQAEDLAVYFCQQDYSSPWTFGGGTKLEIK"
binds,,,,,"hAPRIL.132 (antibody, IgG1, V domains shown, constant regions are not; also called anti-hAPRIL antibody hAPRIL.132) VH: QEQLKESGPGLVAPSQSLSITCTVSGFSLTSYGVHWVRQPPGKGLEWLGVIWAGGSTNYNSALMSRLSISRDNSKSQVFLKMNSLQTDDTAMYYCAREGLDTSGFYYAMDYWGQGTSVTVSS VL: DIQMTQTTSSLSASLGDRVTISCRAGQAISNYLNWYQQKPGGTVKLLIYYTSKLHSGVPSRFSGSGSGTDYSLTISNLEQEDIATYFCQQGYTLPYTFGGGTKLEIK"
